Measured values from publication doi:10.1101/2025.07.31.668009.
No constants are given. Whether binding was seen depends on the method and setting. For part of these data: In cells and extracts the contact can be indirect. Sequences can lack the tags named with a protein.

Columns and labels:
[1] = biological target: T1, ERL2CD (cytoplasmic domain of ERL2), yeast two-hybrid fusion (Arabidopsis) (UniProt Q6XAT2); assay: two-hybrid
T1 sequence: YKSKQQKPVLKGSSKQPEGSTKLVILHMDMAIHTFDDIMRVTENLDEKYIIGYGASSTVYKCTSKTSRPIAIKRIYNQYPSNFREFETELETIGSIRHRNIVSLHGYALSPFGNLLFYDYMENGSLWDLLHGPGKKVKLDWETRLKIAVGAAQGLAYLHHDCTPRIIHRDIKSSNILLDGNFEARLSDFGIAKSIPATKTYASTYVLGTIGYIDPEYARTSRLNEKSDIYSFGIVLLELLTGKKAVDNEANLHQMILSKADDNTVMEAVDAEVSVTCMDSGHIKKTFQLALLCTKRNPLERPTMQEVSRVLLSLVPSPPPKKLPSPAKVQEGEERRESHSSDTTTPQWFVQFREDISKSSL

[2] = biological target: T2, ERL1CD (cytoplasmic domain of ERECTA-LIKE 1), yeast two-hybrid fusion (Arabidopsis) (UniProt C0LGW6); assay: two-hybrid
T2 sequence: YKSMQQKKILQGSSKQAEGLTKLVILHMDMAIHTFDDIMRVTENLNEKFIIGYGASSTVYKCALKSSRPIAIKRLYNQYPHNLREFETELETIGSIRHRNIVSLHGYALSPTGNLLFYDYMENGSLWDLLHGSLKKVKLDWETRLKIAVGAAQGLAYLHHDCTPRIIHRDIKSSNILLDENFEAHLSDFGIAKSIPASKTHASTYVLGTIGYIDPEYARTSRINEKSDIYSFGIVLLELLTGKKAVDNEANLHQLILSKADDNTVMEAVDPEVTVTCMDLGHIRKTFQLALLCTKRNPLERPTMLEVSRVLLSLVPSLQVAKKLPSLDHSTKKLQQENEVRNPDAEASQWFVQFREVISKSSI

[3] = biological target: T3, ERECTACD (cytoplasmic domain of ERECTA), yeast two-hybrid fusion (Arabidopsis) (UniProt Q42371); assay: two-hybrid
T3 sequence: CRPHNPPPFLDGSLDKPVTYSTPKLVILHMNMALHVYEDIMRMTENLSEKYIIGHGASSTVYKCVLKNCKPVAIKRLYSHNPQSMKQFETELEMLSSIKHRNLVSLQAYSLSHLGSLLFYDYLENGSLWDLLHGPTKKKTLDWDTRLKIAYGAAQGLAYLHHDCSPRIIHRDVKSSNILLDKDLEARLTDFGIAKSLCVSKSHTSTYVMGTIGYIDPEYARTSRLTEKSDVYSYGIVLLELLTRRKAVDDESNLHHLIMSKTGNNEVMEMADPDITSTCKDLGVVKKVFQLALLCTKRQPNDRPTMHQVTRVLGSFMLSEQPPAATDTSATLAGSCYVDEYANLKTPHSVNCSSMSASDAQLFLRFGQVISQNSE

[4] = biological target: T4, ERECTACD (cytoplasmic domain of ERECTA), BiFC fusion (Arabidopsis) (UniProt Q42371); assay: split reporter
T4 sequence: T3 sequence

[5] = biological target: T5, ERL2CD (cytoplasmic domain of ERL2), BiFC fusion (Arabidopsis) (UniProt Q6XAT2); assay: split reporter
T5 sequence: T1 sequence

[6] = biological target: T6, ERL1CD (cytoplasmic domain of ERECTA-LIKE 1), BiFC fusion (Arabidopsis) (UniProt C0LGW6); assay: split reporter
T6 sequence: T2 sequence

Measured: binding

B1: AP2μ (medium subunit of the AP2 complex), yeast two-hybrid fusion (protein, UniProt O23140 1-438)
chain: MPVAASAIYFLNLRGDVLINRTYRDDVGGNMVDAFRTHIMQTKELGNCPVRQIGGCSFVYMRISNVYIVIVVSSNANVACGFKFVVEAVALFKSYFGGAFDEDAIRNNFVLIYELLDEIMDFGYPQNLSPEILKLYITQEGVRSPFSSKPKDKPVPNATLQVTGAVGWRREGLAYKKNEVFLDIVESVNLLMSSKGNVLRCDVTGKVLMKCFLSGMPDLKLGLNDKIGLEKESEMKSRPAKSGKTIELDDVTFHQCVNLTRFNSEKTVSFVPPDGEFELMKYRITEGVNLPFRVLPTIKELGRTRMEVNVKVKSVFGAKMFALGVVVKIPVPKQTAKTNFQVTTGRAKYNPSIDCLVWKIRKFPGQTESTLSAEIELISTMGEKKSWTRPPIQMEFQVPMFTASGLRVRFLKVWEKSGYNTVEWVRYITKAGSYEIRC
no binding: [1] | [2] | [3]

B2: AP2μ (medium subunit of the AP2 complex), BiFC fusion (protein, UniProt O23140 1-438)
chain: B1 chain
no binding: [4] | [5] | [6]
